Results taken from patent US20030008814A1 (priority 2002, published 2003).
HELM strings list residues between dots; [ac] is acetyl, [am] amide, other brackets name non-standard units.

Test: peptide synthesis
Conditions: late stage modification step

Work on “PEPTIDE1{[3-OH-C14].S.[D-Dab].D.K.[Dab].[aThr].[Z-Dhb].[Asp(3-OH)].[Thr(4-Cl)]}|CHEM1{[pBn2PO4-BnOCO]}|CHEM2{[pBn2PO4-BnOCO]}|CHEM3{[pBn2PO4-BnOCO]}$PEPTIDE1,PEPTIDE1,2:R3-10:R2|PEPTIDE1,CHEM1,3:R3-1:R2|PEPTIDE1,CHEM2,5:R3-1:R2|PEPTIDE1,CHEM3,6:R3-1:R2$$$V2.0” yielded a step yield of 34%.
